{
  "sequences": {"note": "Amino acid sequences for entries named in this document (tags omitted).", "UniProt P06730": "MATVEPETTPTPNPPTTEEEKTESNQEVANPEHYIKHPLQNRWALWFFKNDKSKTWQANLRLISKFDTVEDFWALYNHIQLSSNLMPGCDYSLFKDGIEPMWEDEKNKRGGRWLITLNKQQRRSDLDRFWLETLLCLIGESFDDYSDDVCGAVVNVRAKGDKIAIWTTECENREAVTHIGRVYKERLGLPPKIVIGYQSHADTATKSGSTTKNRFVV", "UniProt Q8JZQ9": "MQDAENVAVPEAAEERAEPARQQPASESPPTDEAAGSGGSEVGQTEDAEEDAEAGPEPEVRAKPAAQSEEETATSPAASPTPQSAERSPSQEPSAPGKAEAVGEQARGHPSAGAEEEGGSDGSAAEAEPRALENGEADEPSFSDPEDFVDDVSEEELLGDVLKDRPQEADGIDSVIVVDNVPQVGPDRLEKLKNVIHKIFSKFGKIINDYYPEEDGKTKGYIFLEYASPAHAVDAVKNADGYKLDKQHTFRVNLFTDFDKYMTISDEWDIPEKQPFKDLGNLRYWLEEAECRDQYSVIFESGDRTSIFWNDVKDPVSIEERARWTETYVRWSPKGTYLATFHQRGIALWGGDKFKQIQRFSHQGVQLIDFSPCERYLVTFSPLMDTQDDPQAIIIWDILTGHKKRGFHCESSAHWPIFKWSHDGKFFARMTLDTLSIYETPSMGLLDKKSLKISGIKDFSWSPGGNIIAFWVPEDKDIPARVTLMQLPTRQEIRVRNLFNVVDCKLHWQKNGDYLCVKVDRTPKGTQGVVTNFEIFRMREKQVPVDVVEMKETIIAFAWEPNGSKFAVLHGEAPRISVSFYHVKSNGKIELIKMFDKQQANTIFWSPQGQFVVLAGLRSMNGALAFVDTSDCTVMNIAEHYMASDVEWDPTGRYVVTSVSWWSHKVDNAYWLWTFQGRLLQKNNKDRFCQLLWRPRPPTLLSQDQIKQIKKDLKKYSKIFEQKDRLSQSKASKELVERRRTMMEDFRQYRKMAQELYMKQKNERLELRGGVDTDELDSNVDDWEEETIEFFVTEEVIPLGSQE", "UniProt P55884": "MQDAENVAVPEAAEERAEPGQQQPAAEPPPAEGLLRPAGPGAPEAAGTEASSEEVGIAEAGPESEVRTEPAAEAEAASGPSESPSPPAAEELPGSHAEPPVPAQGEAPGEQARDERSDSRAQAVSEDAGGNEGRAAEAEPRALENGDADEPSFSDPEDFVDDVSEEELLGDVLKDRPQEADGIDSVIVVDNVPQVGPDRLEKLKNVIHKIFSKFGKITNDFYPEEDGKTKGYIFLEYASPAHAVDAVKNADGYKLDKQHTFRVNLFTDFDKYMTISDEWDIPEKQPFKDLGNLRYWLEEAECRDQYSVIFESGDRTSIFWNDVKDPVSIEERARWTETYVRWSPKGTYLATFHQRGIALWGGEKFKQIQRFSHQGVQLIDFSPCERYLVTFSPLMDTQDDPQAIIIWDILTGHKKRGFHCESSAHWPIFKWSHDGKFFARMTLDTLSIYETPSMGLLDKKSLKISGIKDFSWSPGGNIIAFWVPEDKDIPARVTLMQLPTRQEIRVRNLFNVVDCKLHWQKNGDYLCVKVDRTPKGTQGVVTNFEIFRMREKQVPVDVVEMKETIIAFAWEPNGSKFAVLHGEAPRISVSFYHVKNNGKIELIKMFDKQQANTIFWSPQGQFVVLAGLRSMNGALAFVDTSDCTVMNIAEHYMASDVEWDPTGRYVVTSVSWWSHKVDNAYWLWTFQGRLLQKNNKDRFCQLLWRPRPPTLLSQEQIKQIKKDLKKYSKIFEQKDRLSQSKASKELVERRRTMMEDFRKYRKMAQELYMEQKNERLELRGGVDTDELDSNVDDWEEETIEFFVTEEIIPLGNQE", "UniProt O75821": "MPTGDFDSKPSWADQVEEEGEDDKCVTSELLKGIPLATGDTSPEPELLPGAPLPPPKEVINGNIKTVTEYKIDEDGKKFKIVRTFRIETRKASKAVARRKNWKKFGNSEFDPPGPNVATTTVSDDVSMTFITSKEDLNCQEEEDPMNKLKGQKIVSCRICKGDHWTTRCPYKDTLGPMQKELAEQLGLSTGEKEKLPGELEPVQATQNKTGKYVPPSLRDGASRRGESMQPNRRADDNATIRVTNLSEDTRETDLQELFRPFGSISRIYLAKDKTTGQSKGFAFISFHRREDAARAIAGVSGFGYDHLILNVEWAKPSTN"},
  "source": "paper PMC5430665",
  "molecules": {"B1": {"name": "Ofd1 (murine) (protein, UniProt Q80Z25 1-1017)", "chain": "MAQSNMPHKSDVLSQDELRKKLYQTFKDRGVLDTLQTQLRNQLIHELMHPVLSGEVKPPSISVEGSALLIGASNSLVADHLQRCGYEYSLSVFFPESGLAKEKIFTMQDLLQLIRINPSSSLYKSLISGFDKENKKGFLMSFLKELAEYYQAKESCDAETQTSTTFPSQVSLAEKFQLIDAQFADGFPHRSKLESLETKLNEYKKEVQHQLQVEMCHKLKYFREAEITKVKMEERRKYEKELAEFQNEFERTCQAKNEALISQEKNSLERIKKHREMESKEIYAQRQLLLNDIALLRGREAELKERIETFELTQKLQEEKIKSEAEALERREQNLKNIEDTYDQKLKTELLKYQLELKDDYITRTNKLLEEERKNKEKTIHLQEELTVINSKKEELSKSVKHMKEVELELESVKAQFLAISKQNHLLNEKVREMSDYSQLKEEKVELQAQNKLLKLQLEETRNENLRLLDRITQPPPELVIFQKELQKTEKAMELEHKDFETHRQALEKQLQSEIENSAQLRTQIAEYDASVKRLTVQVAELKSQLKQTQIALENEVYRNPKHSLIHSLSGLLLSGKMAPHSEDKSGDFLNVPLEQNKVIAGAVMSRVPPYVNTATEASSPESDFEFIASSTKAKVRELEQEAERLEKAFRTYYQRATQNPSTSPQPAKSPPSVNSVAALRSIASSSMDRPVSAEDRVVSEQPLGDMLKEEMSDMSKAFMGSVVSRPRRTSSSTRLSSTPHPKSRRSLDNEMYLEGLGRLHMTSSSPLLDRVSASPAASPSPCPERTAQASPVPSRHSFSGLPEQNACLYQRQTETQDKSELSNVDKQSLKDEKFEPPFRWNKTEQFEAEGLHPAGDMPGIDFAVATQSSRLISYDYPSAVQSQTGEQDEQELWELHMKERRQREEQRHNERQEALERERRELGKLEQERRMIEESLKMEMEEELEKSVQDQKDKSAHCENTLEKYMKIIQQRQEESNADKSSKKSGKECSLVDMMMPSDKDESSPGFSHEEPDDMW"}, "B2": {"name": "FLAG-Bicc1 (protein, UniProt Q99MQ1 1-977)", "chain": "MASQSEPGYLAAAQSDPGSNSERSTDSPVAGSEDDLVAAAPLLHSPEWSEERFRVDRKKLEAMLQAAAEGKGRSGEDFFQKIMEETNTQIAWPSKLKIGAKSKKDPHIKVSGKKEDVKEAKEMIMSVLDTKSNRVTLKMDVSHTEHSHVIGKGGNNIKKVMEDTGCHIHFPDSNRNNQAEKSNQVSIAGQPAGVESARARIRELLPLVLMFELPIAGILQPVPDPNTPSIQHISQTYSVSVSFKQRSRMYGATVTVRGSQNNTNAVKEGTAMLLEHLAGSLASAIPVSTQLDIAAQHHLFMMGRNGSNVKHIMQRTGAQIHFPDPSNPQKKSTVYLQGTIESVCLARQYLMGCLPLVLMFDMKEDIEVDPQVIAQLMEQLDVFISIKPKPKQPSKSVIVKSVERNALNMYEARKCLLGLESSGVSIATSLSPASCPAGLACPSLDILASAGLGLTGLGLLGPTTLSLNTSATPNSLLNALNTSVSPLQSSSSGTPSPTLWAPPIANTASATGFSTIPHLMLPSTAQATLTNILLSGVPTYGHTAPSPPPGLTPVDVHINSMQTEGKNISASINGHVQPANMKYGPLSTSSLGEKVLSSNHGDPSMQTAGPEQASPKSNSVEGCNDAFVEVGMPRSPSHSGNAGDLKQMLGASKVSCAKRQTVELLQGTKNSHLHGTDRLLSDPELSATESPLADKKAPGSERAAERAAAAQQKSERARLASQPTYVHMQAFDYEQKKLLATKAMLKKPVVTEVRTPTNTWSGLGFSKSMPAETIKELRRANHVSYKPTMTTAYEGSSLSLSRSSSREHLASGSESDNWRDRNGIGPMGHSEFSAPIGSPKRKQNKSREHYLSSSNYMDCISSLTGSNGCNLNSCFKGSDLPELFSKLGLGKYTDVFQQQEIDLQTFLTLTDQDLKELGITTFGARRKMLLAISELSKNRRKLFEPPNASCTSFLEGGASGRLPRQYHSDIASVSGRW"}, "B3": {"name": "OFD1 (protein, UniProt O75665-1 1-1012)", "chain": "MMAQSNMFTVADVLSQDELRKKLYQTFKDRGILDTLKTQLRNQLIHELMHPVLSGELQPRSISVEGSSLLIGASNSLVADHLQRCGYEYSLSVFFPESGLAKEKVFTMQDLLQLIKINPTSSLYKSLVSGSDKENQKGFLMHFLKELAEYHQAKESCNMETQTSSTFNRDSLAEKLQLIDDQFADAYPQRIKFESLEIKLNEYKREIEEQLRAEMCQKLKFFKDTEIAKIKMEAKKKYEKELTMFQNDFEKACQAKSEALVLREKSTLERIHKHQEIETKEIYAQRQLLLKDMDLLRGREAELKQRVEAFELNQKLQEEKHKSITEALRRQEQNIKSFEETYDRKLKNELLKYQLELKDDYIIRTNRLIEDERKNKEKAVHLQEELIAINSKKEELNQSVNRVKELELELESVKAQSLAITKQNHMLNEKVKEMSDYSLLKEEKLELLAQNKLLKQQLEESRNENLRLLNRLAQPAPELAVFQKELRKAEKAIVVEHEEFESCRQALHKQLQDEIEHSAQLKAQILGYKASVKSLTTQVADLKLQLKQTQTALENEVYCNPKQSVIDRSVNGLINGNVVPCNGEISGDFLNNPFKQENVLARMVASRITNYPTAWVEGSSPDSDLEFVANTKARVKELQQEAERLEKAFRSYHRRVIKNSAKSPLAAKSPPSLHLLEAFKNITSSSPERHIFGEDRVVSEQPQVGTLEERNDVVEALTGSAASRLRGGTSSRRLSSTPLPKAKRSLESEMYLEGLGRSHIASPSPCPDRMPLPSPTESRHSLSIPPVSSPPEQKVGLYRRQTELQDKSEFSDVDKLAFKDNEEFESSFESAGNMPRQLEMGGLSPAGDMSHVDAAAAAVPLSYQHPSVDQKQIEEQKEEEKIREQQVKERRQREERRQSNLQEVLERERRELEKLYQERKMIEESLKIKIKKELEMENELEMSNQEIKDKSAHSENPLEKYMKIIQQEQDQESADKSSKKMVQEGSLVDTLQSSDKVESLTGFSHEELDDSW"}},
  "key": {"[1]": {"molecular_target": "eIF4E (human (endogenous in HEK293)) (UniProt P06730)", "assay": "co-IP; endogenous proteins in total lysates of HEK293 cells; IgG as control; Co-IP buffer 50 mM Tris-HCl, 1 mM EDTA, 10 mM MgCl2, 5 mM EGTA, 0.5% Triton X-100, pH 7.28; also in OFD1-silenced and Bicc1-silenced cells"}, "[2]": {"molecular_target": "T1, OFD1 (human (endogenous in HEK293)) (UniProt O75665)", "T1 sequence": "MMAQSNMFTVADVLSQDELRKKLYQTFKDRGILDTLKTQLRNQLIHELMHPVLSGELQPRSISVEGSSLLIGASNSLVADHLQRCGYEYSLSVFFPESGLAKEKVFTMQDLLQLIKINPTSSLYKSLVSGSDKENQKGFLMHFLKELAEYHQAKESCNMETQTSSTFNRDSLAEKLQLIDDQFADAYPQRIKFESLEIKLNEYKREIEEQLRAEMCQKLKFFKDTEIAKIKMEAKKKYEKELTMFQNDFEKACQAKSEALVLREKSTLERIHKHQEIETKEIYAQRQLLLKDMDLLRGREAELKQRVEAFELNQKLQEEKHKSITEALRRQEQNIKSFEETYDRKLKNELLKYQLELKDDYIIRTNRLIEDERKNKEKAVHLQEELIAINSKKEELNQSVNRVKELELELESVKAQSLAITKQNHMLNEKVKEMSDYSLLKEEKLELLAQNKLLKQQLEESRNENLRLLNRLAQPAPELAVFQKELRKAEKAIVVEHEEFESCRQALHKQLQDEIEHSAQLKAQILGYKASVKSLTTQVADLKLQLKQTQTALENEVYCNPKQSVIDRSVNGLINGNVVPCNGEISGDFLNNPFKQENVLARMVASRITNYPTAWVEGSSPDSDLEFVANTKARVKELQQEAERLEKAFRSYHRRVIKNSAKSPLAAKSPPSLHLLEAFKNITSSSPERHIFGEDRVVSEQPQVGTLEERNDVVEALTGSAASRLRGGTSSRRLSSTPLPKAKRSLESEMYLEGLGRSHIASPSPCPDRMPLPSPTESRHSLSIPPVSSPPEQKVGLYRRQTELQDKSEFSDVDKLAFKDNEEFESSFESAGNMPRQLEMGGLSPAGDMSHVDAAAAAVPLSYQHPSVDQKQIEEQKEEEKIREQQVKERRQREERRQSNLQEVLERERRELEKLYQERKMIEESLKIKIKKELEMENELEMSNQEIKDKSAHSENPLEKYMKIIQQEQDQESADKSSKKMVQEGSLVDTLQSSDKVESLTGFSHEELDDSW", "assay": "co-IP; endogenous proteins in total lysates of HEK293 cells; IgG as control; Co-IP buffer 50 mM Tris-HCl, 1 mM EDTA, 10 mM MgCl2, 5 mM EGTA, 0.5% Triton X-100, pH 7.28; also in OFD1-silenced and Bicc1-silenced cells"}, "3XFLAG-OFD1 (human)": {"molecular_target": "T2, 3XFLAG-OFD1 (human) (UniProt O75665)", "T2 sequence": "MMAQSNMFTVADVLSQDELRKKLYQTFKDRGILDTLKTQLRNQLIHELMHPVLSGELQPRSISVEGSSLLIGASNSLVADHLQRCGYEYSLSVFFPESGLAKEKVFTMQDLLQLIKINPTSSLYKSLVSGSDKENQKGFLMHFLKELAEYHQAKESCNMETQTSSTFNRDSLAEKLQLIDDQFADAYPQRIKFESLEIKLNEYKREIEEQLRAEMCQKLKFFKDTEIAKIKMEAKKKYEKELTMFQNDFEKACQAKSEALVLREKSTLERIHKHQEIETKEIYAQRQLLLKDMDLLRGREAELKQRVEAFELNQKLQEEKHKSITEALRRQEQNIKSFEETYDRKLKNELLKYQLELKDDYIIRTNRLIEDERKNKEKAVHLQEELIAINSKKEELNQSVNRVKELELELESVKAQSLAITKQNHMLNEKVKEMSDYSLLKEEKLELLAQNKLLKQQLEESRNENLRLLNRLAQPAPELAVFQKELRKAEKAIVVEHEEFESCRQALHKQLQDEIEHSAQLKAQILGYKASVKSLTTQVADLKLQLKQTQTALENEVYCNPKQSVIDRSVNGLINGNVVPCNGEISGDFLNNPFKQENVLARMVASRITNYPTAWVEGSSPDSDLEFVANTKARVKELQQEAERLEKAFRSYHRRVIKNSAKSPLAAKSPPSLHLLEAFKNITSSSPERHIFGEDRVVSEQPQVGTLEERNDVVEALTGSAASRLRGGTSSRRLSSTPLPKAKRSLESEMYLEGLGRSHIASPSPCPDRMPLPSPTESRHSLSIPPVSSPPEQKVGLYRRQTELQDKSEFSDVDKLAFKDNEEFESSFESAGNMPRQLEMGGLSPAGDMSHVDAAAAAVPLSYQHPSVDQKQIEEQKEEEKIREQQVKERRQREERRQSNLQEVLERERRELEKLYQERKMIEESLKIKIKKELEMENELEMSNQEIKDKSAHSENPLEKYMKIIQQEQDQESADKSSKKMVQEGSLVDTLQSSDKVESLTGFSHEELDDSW", "assay": "co-IP; HEK293 lysates with 3XFLAG-OFD1 wild type or mutated in the eIF4E binding site (Y282S, Y282D); eIF4E detected by WB, eIF4E/OFD1 ratio quantified"}, "[3]": {"molecular_target": "eIF3B (murine) (mouse (endogenous in kidney)) (UniProt Q8JZQ9)", "assay": "co-IP; polysomal fractions extracted from wild-type mouse kidneys (P8)"}, "[4]": {"molecular_target": "eIF3B (human (endogenous in HEK293)) (UniProt P55884)", "assay": "co-IP; HEK293 cells overexpressing Bicc1, control and OFD1-silenced cells"}, "[5]": {"molecular_target": "eIF3G (human (endogenous in HEK293)) (UniProt O75821)", "assay": "co-IP; endogenous proteins in total lysates of HEK293 cells; IgG as control; Co-IP buffer 50 mM Tris-HCl, 1 mM EDTA, 10 mM MgCl2, 5 mM EGTA, 0.5% Triton X-100, pH 7.28; also in OFD1-silenced and Bicc1-silenced cells"}},
  "note": "These are yes or no findings as the source states them, for the method shown. Binding seen in cells or lysates may run through a third protein. Some entries that bind do so weakly or less than the wild type. For some of these results: Sequences can lack the tags named with a protein.",
  "data": [
    {"molecule": "eIF3B (from UniProt P55884 1-814)", "values": [
      {"measurement": "binding", "setting": "[1]", "value": "binds"}
    ]},
    {"molecule": "eIF3G (from UniProt O75821 1-320)", "values": [
      {"measurement": "binding", "setting": "[2]", "value": "binds"}
    ]},
    {"molecule": "eIF4E (from UniProt P06730 1-217)", "values": [
      {"measurement": "binding", "setting": "3XFLAG-OFD1 (human)", "value": "binds"},
      {"measurement": "binding", "setting": "[2]", "value": "binds"}
    ]},
    {"molecule": "B1", "values": [
      {"measurement": "binding", "setting": "[3]", "value": "binds"}
    ]},
    {"molecule": "B2", "values": [
      {"measurement": "binding", "setting": "[4]", "value": "binds"}
    ]},
    {"molecule": "B3", "values": [
      {"measurement": "binding", "setting": "[5]", "value": "binds"}
    ]}
  ]
}
